The list shows only some results of the screen, not a fair sample: it is rich in T/C values a quarter to a half above the control, in often repeated tests (any T/C) and in doses without a T/C. Further doses and runs are listed elsewhere. T/C: endpoint of the treated group in % of that of the vehicle group. Some doses have a count of surviving animals in place of a T/C: the source holds a T/C of zero for them, seemingly a mark for toxic or unscored doses. Some doses without a T/C left all or most animals alive at the check, yet need not have been tolerated: survival well below the control is almost never listed, so the zero probably covers shortened survival too. Survivors were counted at the toxicity check, usually on the fifth day, unless a day is given; later deaths do not show. Schedules are NCI's codes, taken here to give the interval after Q, in days (D) or hours (H), and the number of doses after X. Some entries were tested several times; the results are listed from low to high. For survival time, the PubChem record calls one and a half times the control and up active, and a quarter to a half above the control has no call in these data; cut-offs in other NCI protocols can differ. Some T/C values are followed by the survivors on the day toxicity was checked, most often the fifth; without a count, all were alive then.
Test system: B6C3F1 mice, ip Sarcoma M5076, median survival T/C
Assay: NCI In Vivo Anticancer Drug Screen. Data for tumor model Sarcoma M5076 (intraperitoneal) in B6C3F1 mice
Conditions: T/C endpoint: median survival time, schedule: Q04DX004 (ip), higher T/C = longer survival
Summary of the method: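 Tumour cells were transplanted into mice, compound or vehicle was given, survival of both groups was followed, and the treated figure was expressed over the control figure.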

[1] = dose: 50.0 mg/kg/injection, vehicle: saline with Tween-80
[2] = dose: 100.0 mg/kg/injection, vehicle: Klucel (hydroxypropylcellulose) (HPC)
[3] = dose: 800.0 mg/kg/injection, vehicle: Klucel (hydroxypropylcellulose) (HPC)
[4] = dose: 800.0 mg/kg/injection, vehicle: suspension in saline
[5] = dose: 150.0 mg/kg/injection, vehicle: saline with Tween-80
[6] = dose: 300.0 mg/kg/injection, vehicle: saline with Tween-80
[7] = dose: 600.0 mg/kg/injection, vehicle: saline with Tween-80
[8] = dose: 800.0 mg/kg/injection, vehicle: saline with Tween-80
[9] = dose: 400.0 mg/kg/injection, vehicle: Klucel (hydroxypropylcellulose) (HPC)
[10] = dose: 200.0 mg/kg/injection, vehicle: saline with Tween-80
[11] = dose: 400.0 mg/kg/injection, vehicle: saline with Tween-80

CO[C@@]12[C@@H]3N[C@@H]3CN1C1=C(C(=O)C(NCCc3ccccn3)=C(C)C1=O)[C@@H]2COC(N)=O
T/C (dose: 3.13 mg/kg/injection, vehicle: saline with Tween-80): 129 % of control | T/C (dose: 6.25 mg/kg/injection, vehicle: saline with Tween-80): 128 % of control | T/C (dose: 9.0 mg/kg/injection, vehicle: saline with Tween-80): 125 % of control | T/C (dose: 12.5 mg/kg/injection, vehicle: saline with Tween-80): 133 % of control [9 of 10 alive on day 14] | T/C (dose: 15.0 mg/kg/injection, vehicle: saline with Tween-80): 140 % of control | survivor count [1]: 10 of 10 on day 14

NC(=O)C1=CC2C3C=CC2(O)C(=O)OC3O1 (centres undefined)
survivor count (dose: 120.0 mg/kg/injection, vehicle: Klucel (hydroxypropylcellulose) (HPC)): 0 of 10 on day 14

COc1cc(C2c3cc4c(cc3[C@@H](OC3OC5CO[C@@H](C)OC5C(O)C3O)[C@H]3COC(=O)C23)OCO4)cc(OC)c1OC (some centres undefined)
T/C [2]: 133 % of control | T/C (dose: 150.0 mg/kg/injection, vehicle: suspension in saline): 134 % of control | T/C (dose: 200.0 mg/kg/injection, vehicle: saline): 129 % of control [9 of 10 alive on day 14] | T/C (dose: 400.0 mg/kg/injection, vehicle: saline): 133 % of control [9 of 10 alive on day 14] | survivor count [3]: 0 of 10 on day 14 | survivor count [4]: 8 of 10 on day 4

CN(C)C(=O)Nc1ccc(Cl)cc1
survivor count [4]: 0 of 10 on day 9 and 6 of 10 on day 9

CN1CCN(c2c(C(=O)Nc3ccc([N+](=O)[O-])cc3)cc([N+](=O)[O-])cc2[N+](=O)[O-])CC1
survivor count [5]: 10 of 10 on day 14 | survivor count [6]: 10 of 10 on day 14 | survivor count [7]: 10 of 10 on day 14

Nc1nc2n[nH]nc2c(=O)[nH]1
T/C (dose: 100.0 mg/kg/injection, vehicle: suspension in saline): 125 % of control | survivor count (dose: 400.0 mg/kg/injection, vehicle: suspension in saline): 7 of 10 on day 9 | survivor count [4]: 7 of 10 on day 9

Nc1nc2ncn(O)c2c(=O)[nH]1
T/C (dose: 6.25 mg/kg/injection, vehicle: water): 126 % of control | T/C (dose: 12.5 mg/kg/injection, vehicle: water): 132 % of control | T/C (dose: 25.0 mg/kg/injection, vehicle: water): 126 % of control | survivor count (dose: 50.0 mg/kg/injection, vehicle: water): 5 of 10 on day 14 | survivor count (dose: 100.0 mg/kg/injection, vehicle: water): 1 of 10 on day 14

CC1CC(Nc2ccc(NC3=CC(=O)OC(C)C3)cc2)=CC(=O)O1 (centres undefined)
survivor count [7]: 10 of 10 on day 14

CCOC(=O)Nc1cc2c(c(N)n1)N=C(c1ccccc1)CO2
T/C [8]: 135 % of control

COc1ccc(-n2[nH]c3c(cnc4ccccc43)c2=O)cc1
survivor count (dose: 37.5 mg/kg/injection, vehicle: saline with Tween-80): 10 of 10 on day 14 | survivor count (dose: 75.0 mg/kg/injection, vehicle: saline with Tween-80): 9 of 10 on day 14 | survivor count [5]: 7 of 10 on day 14 | survivor count [6]: 9 of 10 on day 14 | survivor count [7]: 10 of 10 on day 14

CC[C@@]1(O)C(=O)OCc2c1cc1n(c2=O)Cc2cc3ccccc3nc2-1
T/C (dose: 0.75 mg/kg/injection, vehicle: saline with Tween-80): 126 % of control | T/C (dose: 1.5 mg/kg/injection, vehicle: saline with Tween-80): 125 % of control | T/C (dose: 3.0 mg/kg/injection, vehicle: saline with Tween-80): 134 % of control | survivor count (dose: 12.0 mg/kg/injection, vehicle: saline with Tween-80): 5 of 10 on day 14

CCn1c(-c2ccc(OC(C)=O)cc2)c(C)c2cc(OC(C)=O)ccc21
survivor count [9]: 9 of 10 on day 14

CCN(CC)Cc1cc2[nH]c3c4ccc(Cl)cc4ncc3c2cc1OC (tested in a mixture with another compound)
survivor count [5]: 4 of 10 on day 14 | survivor count [10]: 3 of 10 on day 14 | survivor count [6]: 0 of 10 on day 14 | survivor count [11]: 0 of 10 on day 14

Cc1ccc(C(=O)[O][Hg][CH2]C2COC([CH2][Hg][O]C(=O)c3ccc(C)cc3)CO2)cc1 (centres undefined)
survivor count [1]: 9 of 10 on day 14 | survivor count (dose: 100.0 mg/kg/injection, vehicle: saline with Tween-80): 9 of 10 on day 14

CC[C@@]1(O)C(=O)OCc2c1cc1n(c2=O)Cc2cc3cc(O)ccc3nc2-1
T/C (dose: 4.0 mg/kg/injection, vehicle: suspension in saline): 133 % of control | T/C (dose: 7.5 mg/kg/injection, vehicle: suspension in saline): 134 % of control | T/C (dose: 11.12 mg/kg/injection, vehicle: suspension in saline): 126 % of control [8 of 10 alive on day 14] | T/C (dose: 15.0 mg/kg/injection, vehicle: suspension in saline): 142 % of control [8 of 10 alive on day 14] | survivor count (dose: 18.53 mg/kg/injection, vehicle: suspension in saline): 0 of 10 on day 14 | survivor count (dose: 30.0 mg/kg/injection, vehicle: suspension in saline): 0 of 10 on day 14

COc1cc(/C=C/[N+](=O)[O-])cc(Br)c1OC
survivor count [10]: 2 of 10 on day 14

O=C(Nc1ccc2ccccc2c1)C1C(=O)C(=O)N(c2ccc3ccccc3c2)C1=O (centres undefined)
survivor count [9]: 10 of 10 on day 14 | survivor count [3]: 8 of 10 on day 14

COc1cc(C#N)c(NC(=S)N2CCN(C(=O)c3ccco3)CC2)cc1OC
survivor count [3]: 3 of 10 on day 14

O=S(O)Cc1ccccc1CSSSCc1ccccc1CS(=O)O
survivor count (dose: 200.0 mg/kg/injection, vehicle: suspension in saline): 9 of 10 on day 14

CC1/C=C/C=C/CC/C=C/C=C/C=C/C=C/C(OC2OC(C)C(O)C(N)C2O)CC2OC(CC(O)C(O)CCC(O)CC(O)CC(O)CC(=O)OC(C)C(C)C1O)CC(O)C2C(=O)O (centres undefined)
survivor count [10]: 3 of 10 on day 14 | survivor count [11]: 2 of 10 on day 14

CNC(=S)SC1=NS(=O)(=O)c2ccccc2N1
survivor count (dose: 480.0 mg/kg/injection, vehicle: Klucel (hydroxypropylcellulose) (HPC)): 0 of 10 on day 14 | T/C [3]: 125 % of control [7 of 10 alive on day 14] | survivor count [3]: 0 of 10 on day 14 | survivor count (dose: 1333.33 mg/kg/injection, vehicle: Klucel (hydroxypropylcellulose) (HPC)): 0 of 10 on day 14

O=Cc1ccc(O)c(O)c1
survivor count [8]: 0 of 10 on day 14

CCOC1NC(=O)Oc2ccccc21 (centres undefined)
survivor count [3]: 0 of 10 on day 14

O=S(Cl)C(Cl)=C(Cl)Cl (centres undefined)
survivor count (dose: 50.0 mg/kg/injection, vehicle: Klucel (hydroxypropylcellulose) (HPC)): 10 of 10 on day 14 | survivor count [2]: 8 of 10 on day 14 | survivor count (dose: 200.0 mg/kg/injection, vehicle: Klucel (hydroxypropylcellulose) (HPC)): 4 of 10 on day 14 | survivor count [9]: 4 of 10 on day 14

COc1ccc([N+](=O)[O-])cc1NC(=O)C1C(=O)C(=O)N(c2cc([N+](=O)[O-])ccc2OC)C1=O (centres undefined)
survivor count [9]: 6 of 10 on day 14 | survivor count [3]: 1 of 10 on day 14

CSc1c(N(C)C)c(=O)c1=S
survivor count [10]: 5 of 10 on day 14

Source: PubChem BioAssay AID292 (DTP/NCI, 2004)
